{"source": "PubChem BioAssay AID248", "about": "(DTP/NCI, 2004)", "test_system": "L1210 leukemia ip in BDF1 mice, survival T/C", "experiment": "NCI In Vivo Anticancer Drug Screen. Data for tumor model L1210 Leukemia (intraperitoneal) in B6D2F1 (BDF1) mice", "conditions": "T/C endpoint: mean survival time, higher T/C = longer survival", "note": "The list does not hold the whole screen: it is rich in T/C values a quarter to a half above the control, in often repeated tests (any T/C) and in doses without a T/C. Other doses and runs of a compound stand elsewhere. T/C gives the treated animals as a percentage of the vehicle group. Some entries give survivors of the animals treated and no T/C: the source files T/C as zero there, which appears to mark a toxic dose or a test without result, not a measured value. Some doses without a T/C left all or most animals alive at the check, yet need not have been tolerated: survival well below the control is almost never listed, so the zero probably covers shortened survival too. Counts of survivors are from the toxicity check (mostly the fifth day) where no day follows; animals may have died later. Schedules are NCI's codes, taken here to give the interval after Q, in days (D) or hours (H), and the number of doses after X. Some schedules carry Z or #; the key to these is not given. Some entries hold several experiments; the results are listed from low to high. For survival time, this PubChem deposit counts one and a half times the control or more as active, and values a quarter to a half above the control carry no call in these data; other NCI protocols may use other cut-offs. Some T/C values carry the count of animals alive at the toxicity check (mostly the fifth day); where none is given, no animal had died by that day."}
{"smiles": "CC[C@@]1(O)C(=O)OCc2c1cc1n(c2=O)Cc2cc3ccccc3nc2-1", "values": [{"measurement": "T/C", "setting": "dose: 0.25 mg/kg/injection, schedule: Q01DX010 (ip), vehicle: saline", "value": "146 % of control"}, {"measurement": "T/C", "setting": "dose: 0.25 mg/kg/injection, schedule: Q01DX Z (ip), vehicle: carboxymethylcellulose (CMC)", "value": "127 % of control"}, {"measurement": "T/C", "setting": "dose: 0.4 mg/kg/injection, schedule: Q01DX Z (ip), vehicle: saline", "value": "135 % of control"}, {"measurement": "T/C", "setting": "dose: 0.5 mg/kg/injection, schedule: Q01DX010 (ip), vehicle: saline", "value": "148 % of control"}, {"measurement": "T/C", "setting": "dose: 0.5 mg/kg/injection, schedule: Q01DX010 (oral), vehicle: saline", "value": "140 % of control"}, {"measurement": "T/C", "setting": "dose: 0.5 mg/kg/injection, schedule: Q01DX Z (im), vehicle: saline", "value": "125 % of control"}, {"measurement": "T/C", "setting": "dose: 0.5 mg/kg/injection, schedule: Q01DX Z (ip), vehicle: saline", "value": "136 % of control"}, {"measurement": "T/C", "setting": "dose: 0.5 mg/kg/injection, schedule: Q## X Z (ip), vehicle: saline", "value": "125 % of control"}, {"measurement": "T/C", "setting": "dose: 0.5 mg/kg/injection, schedule: Q#A X Z (ip), vehicle: saline", "value": "148 % of control"}, {"measurement": "T/C", "setting": "dose: 0.63 mg/kg/injection, schedule: Q04DX003 (ip), vehicle: Klucel (hydroxypropylcellulose) (HPC)", "value": "138 % of control"}, {"measurement": "T/C", "setting": "dose: 0.75 mg/kg/injection, schedule: Q01DX Z (ip), vehicle: carboxymethylcellulose (CMC)", "value": "136 % of control"}, {"measurement": "T/C", "setting": "dose: 0.75 mg/kg/injection, schedule: Q03DX Z (ip), vehicle: saline", "value": "129 % of control"}, {"measurement": "T/C", "setting": "dose: 0.8 mg/kg/injection, schedule: Q01DX Z (ip), vehicle: saline", "value": "146 % of control"}, {"measurement": "T/C", "setting": "dose: 1.0 mg/kg/injection, schedule: Q01DX010 (oral), vehicle: saline", "value": "142 % of control"}, {"measurement": "T/C", "setting": "dose: 1.0 mg/kg/injection, schedule: Q01DX Z (im), vehicle: saline", "value": "125 % of control"}, {"measurement": "T/C", "setting": "dose: 1.0 mg/kg/injection, schedule: Q01DX Z (oral), vehicle: saline", "value": "146 % of control"}, {"measurement": "T/C", "setting": "dose: 1.0 mg/kg/injection, schedule: Q01DX Z (sc), vehicle: saline", "value": "142 % of control"}, {"measurement": "T/C", "setting": "dose: 1.0 mg/kg/injection, schedule: Q## X Z (ip), vehicle: saline", "value": "132 % of control"}, {"measurement": "T/C", "setting": "dose: 1.0 mg/kg/injection, schedule: Q#A X Z (ip), vehicle: saline", "value": "126 % of control"}, {"measurement": "T/C", "setting": "dose: 1.25 mg/kg/injection, schedule: Q01DX001 (ip), vehicle: saline", "value": "126 % of control"}, {"measurement": "T/C", "setting": "dose: 2.0 mg/kg/injection, schedule: Q01DX006 (iv), vehicle: saline", "value": "131 % of control"}, {"measurement": "T/C", "setting": "dose: 2.0 mg/kg/injection, schedule: Q01DX010 (iv), vehicle: saline", "value": "129 % of control"}, {"measurement": "T/C", "setting": "dose: 2.0 mg/kg/injection, schedule: Q01DX010 (oral), vehicle: saline", "value": "125 % of control"}, {"measurement": "T/C", "setting": "dose: 2.0 mg/kg/injection, schedule: Q01DX Z (oral), vehicle: saline", "value": "146 % of control"}, {"measurement": "survivor count", "setting": "dose: 2.25 mg/kg/injection, schedule: Q#A X Z (ip), vehicle: saline", "value": "6 of 6"}, {"measurement": "T/C", "setting": "dose: 3.0 mg/kg/injection, schedule: Q01DX Z (im), vehicle: saline", "value": "126 % of control"}, {"measurement": "T/C", "setting": "dose: 3.0 mg/kg/injection, schedule: Q01DX Z (sc), vehicle: saline", "value": "126 % of control"}, {"measurement": "T/C", "setting": "dose: 3.2 mg/kg/injection, schedule: Q01DX Z (ip), vehicle: saline", "value": "147 % of control"}, {"measurement": "survivor count", "setting": "dose: 3.35 mg/kg/injection, schedule: Q#A X Z (ip), vehicle: saline", "value": "5 of 6 and 6 of 6"}, {"measurement": "survivor count", "setting": "dose: 4.0 mg/kg/injection, schedule: Q01DX010 (ip), vehicle: saline", "value": "6 of 6"}, {"measurement": "survivor count", "setting": "dose: 4.0 mg/kg/injection, schedule: Q01DX010 (oral), vehicle: saline", "value": "5 of 6"}, {"measurement": "survivor count", "setting": "dose: 4.0 mg/kg/injection, schedule: Q01DX Z (oral), vehicle: saline", "value": "6 of 6"}, {"measurement": "T/C", "setting": "dose: 4.0 mg/kg/injection, schedule: Q07DX Z (ip), vehicle: saline", "value": "129 % of control"}, {"measurement": "survivor count", "setting": "dose: 5.0 mg/kg/injection, schedule: Q01DX001 (ip), vehicle: saline", "value": "5 of 6"}, {"measurement": "survivor count", "setting": "dose: 5.0 mg/kg/injection, schedule: Q01DX Z (ip), vehicle: carboxymethylcellulose (CMC)", "value": "3 of 6"}, {"measurement": "T/C", "setting": "dose: 6.0 mg/kg/injection, schedule: Q03DX Z (ip), vehicle: saline", "value": "149 % of control"}, {"measurement": "T/C", "setting": "dose: 6.5 mg/kg/injection, schedule: Q01DX006 (iv), vehicle: saline", "value": "126 % of control"}, {"measurement": "survivor count", "setting": "dose: 6.5 mg/kg/injection, schedule: Q01DX Z (im), vehicle: saline", "value": "6 of 6"}, {"measurement": "survivor count", "setting": "dose: 6.5 mg/kg/injection, schedule: Q01DX Z (sc), vehicle: saline", "value": "6 of 6"}, {"measurement": "survivor count", "setting": "dose: 7.2 mg/kg/injection, schedule: Q01DX Z (ip), vehicle: saline", "value": "6 of 6"}, {"measurement": "survivor count", "setting": "dose: 8.0 mg/kg/injection, schedule: Q01DX010 (ip), vehicle: saline", "value": "1 of 6"}, {"measurement": "survivor count", "setting": "dose: 8.0 mg/kg/injection, schedule: Q01DX010 (iv), vehicle: saline", "value": "6 of 6"}, {"measurement": "survivor count", "setting": "dose: 8.0 mg/kg/injection, schedule: Q01DX010 (oral), vehicle: saline", "value": "2 of 6"}, {"measurement": "survivor count", "setting": "dose: 8.0 mg/kg/injection, schedule: Q01DX Z (oral), vehicle: saline", "value": "6 of 6"}, {"measurement": "T/C", "setting": "dose: 8.0 mg/kg/injection, schedule: Q07DX Z (ip), vehicle: saline", "value": "141 % of control"}, {"measurement": "survivor count", "setting": "dose: 9.0 mg/kg/injection, schedule: Q01DX Z (ip), vehicle: saline", "value": "6 of 6"}, {"measurement": "survivor count", "setting": "dose: 9.5 mg/kg/injection, schedule: Q01DX Z (im), vehicle: saline", "value": "6 of 6"}, {"measurement": "survivor count", "setting": "dose: 9.5 mg/kg/injection, schedule: Q01DX Z (sc), vehicle: saline", "value": "5 of 6"}, {"measurement": "survivor count", "setting": "dose: 10.0 mg/kg/injection, schedule: Q01DX001 (ip), vehicle: saline", "value": "4 of 6"}, {"measurement": "survivor count", "setting": "dose: 10.0 mg/kg/injection, schedule: Q01DX Z (ip), vehicle: carboxymethylcellulose (CMC)", "value": "2 of 6"}, {"measurement": "survivor count", "setting": "dose: 10.0 mg/kg/injection, schedule: Q01DX Z (ip), vehicle: saline", "value": "4 of 6"}, {"measurement": "survivor count", "setting": "dose: 13.0 mg/kg/injection, schedule: Q01DX Z (ip), vehicle: saline", "value": "5 of 6"}, {"measurement": "survivor count", "setting": "dose: 14.5 mg/kg/injection, schedule: Q01DX Z (im), vehicle: saline", "value": "5 of 6"}, {"measurement": "survivor count", "setting": "dose: 14.5 mg/kg/injection, schedule: Q01DX Z (sc), vehicle: saline", "value": "4 of 6"}, {"measurement": "T/C", "setting": "dose: 16.0 mg/kg/injection, schedule: Q01DX001 (ip), vehicle: saline", "value": "129 and 140 % of control"}, {"measurement": "survivor count", "setting": "dose: 16.0 mg/kg/injection, schedule: Q01DX010 (ip), vehicle: saline", "value": "1 of 6"}, {"measurement": "survivor count", "setting": "dose: 16.0 mg/kg/injection, schedule: Q01DX010 (iv), vehicle: saline", "value": "4 of 6"}, {"measurement": "survivor count", "setting": "dose: 16.0 mg/kg/injection, schedule: Q01DX Z (oral), vehicle: saline", "value": "6 of 6"}, {"measurement": "survivor count", "setting": "dose: 20.0 mg/kg/injection, schedule: Q01DX001 (ip), vehicle: saline", "value": "1 of 6"}, {"measurement": "survivor count", "setting": "dose: 22.0 mg/kg/injection, schedule: Q01DX006 (iv), vehicle: saline", "value": "6 of 6"}, {"measurement": "survivor count", "setting": "dose: 22.0 mg/kg/injection, schedule: Q01DX Z (im), vehicle: saline", "value": "2 of 6"}, {"measurement": "survivor count", "setting": "dose: 22.0 mg/kg/injection, schedule: Q01DX Z (sc), vehicle: saline", "value": "6 of 6"}, {"measurement": "survivor count", "setting": "dose: 25.0 mg/kg/injection, schedule: Q01DX Z (ip), vehicle: carboxymethylcellulose (CMC)", "value": "0 of 6"}, {"measurement": "survivor count", "setting": "dose: 32.01 mg/kg/injection, schedule: Q01DX010 (iv), vehicle: saline", "value": "4 of 6"}, {"measurement": "survivor count", "setting": "dose: 35.0 mg/kg/injection, schedule: Q07DX Z (ip), vehicle: saline", "value": "3 of 6"}, {"measurement": "T/C", "setting": "dose: 50.0 mg/kg/injection, schedule: Q01DX001 (ip), vehicle: saline", "value": "130 % of control"}, {"measurement": "survivor count", "setting": "dose: 50.0 mg/kg/injection, schedule: Q01DX Z (ip), vehicle: carboxymethylcellulose (CMC)", "value": "0 of 6"}, {"measurement": "survivor count", "setting": "dose: 100.0 mg/kg/injection, schedule: Q01DX Z (ip), vehicle: carboxymethylcellulose (CMC)", "value": "0 of 6"}, {"measurement": "survivor count", "setting": "dose: 245.0 mg/kg/injection, schedule: Q01DX001 (ip), vehicle: saline", "value": "6 of 6"}, {"measurement": "survivor count", "setting": "dose: 370.0 mg/kg/injection, schedule: Q01DX001 (ip), vehicle: saline", "value": "6 of 6"}, {"measurement": "survivor count", "setting": "dose: 550.0 mg/kg/injection, schedule: Q01DX001 (ip), vehicle: saline", "value": "6 of 6"}, {"measurement": "T/C", "setting": "dose: 1000.0 micrograms/kg/injection, schedule: Q01DX Z (ip), vehicle: saline", "value": "127 % of control"}]}
{"smiles": "O=S(=O)(O)/C(=C\\c1ccccc1)c1ccccc1", "note": "(tested in a mixture with another compound)", "values": [{"measurement": "T/C", "setting": "dose: 400.0 mg/kg/injection, schedule: Q04DX003 (ip), vehicle: other", "value": "132 % of control [4 of 6 alive]"}, {"measurement": "survivor count", "setting": "dose: 600.0 mg/kg/injection, schedule: Q01DX001 (ip), vehicle: other", "value": "1 of 6"}]}
